# Assay results as given in publication PMC10721207.
# Sequences of proteins named here, by UniProt entry; tags and fusion partners are left off.
# UniProt Q93ZT6: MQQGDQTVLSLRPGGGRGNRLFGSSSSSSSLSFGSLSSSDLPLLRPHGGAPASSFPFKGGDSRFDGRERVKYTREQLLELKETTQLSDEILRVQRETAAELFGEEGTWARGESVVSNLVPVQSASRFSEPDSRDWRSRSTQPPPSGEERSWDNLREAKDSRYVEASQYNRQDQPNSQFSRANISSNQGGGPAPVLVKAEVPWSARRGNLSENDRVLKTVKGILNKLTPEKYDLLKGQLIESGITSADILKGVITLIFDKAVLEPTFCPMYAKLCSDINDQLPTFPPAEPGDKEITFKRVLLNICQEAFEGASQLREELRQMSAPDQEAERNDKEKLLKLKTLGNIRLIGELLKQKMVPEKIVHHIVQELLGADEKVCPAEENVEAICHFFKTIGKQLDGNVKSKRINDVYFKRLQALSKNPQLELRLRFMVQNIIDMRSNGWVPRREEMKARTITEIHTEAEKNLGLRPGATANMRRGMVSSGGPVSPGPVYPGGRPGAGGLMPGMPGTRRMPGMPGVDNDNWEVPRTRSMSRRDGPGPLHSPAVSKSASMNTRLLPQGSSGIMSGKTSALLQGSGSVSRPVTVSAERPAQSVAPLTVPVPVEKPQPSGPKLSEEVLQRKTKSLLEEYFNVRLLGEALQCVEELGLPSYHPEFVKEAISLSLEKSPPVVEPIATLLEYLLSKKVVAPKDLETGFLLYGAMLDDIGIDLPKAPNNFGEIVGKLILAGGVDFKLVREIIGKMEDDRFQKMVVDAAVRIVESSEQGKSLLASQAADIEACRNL
# UniProt O82233: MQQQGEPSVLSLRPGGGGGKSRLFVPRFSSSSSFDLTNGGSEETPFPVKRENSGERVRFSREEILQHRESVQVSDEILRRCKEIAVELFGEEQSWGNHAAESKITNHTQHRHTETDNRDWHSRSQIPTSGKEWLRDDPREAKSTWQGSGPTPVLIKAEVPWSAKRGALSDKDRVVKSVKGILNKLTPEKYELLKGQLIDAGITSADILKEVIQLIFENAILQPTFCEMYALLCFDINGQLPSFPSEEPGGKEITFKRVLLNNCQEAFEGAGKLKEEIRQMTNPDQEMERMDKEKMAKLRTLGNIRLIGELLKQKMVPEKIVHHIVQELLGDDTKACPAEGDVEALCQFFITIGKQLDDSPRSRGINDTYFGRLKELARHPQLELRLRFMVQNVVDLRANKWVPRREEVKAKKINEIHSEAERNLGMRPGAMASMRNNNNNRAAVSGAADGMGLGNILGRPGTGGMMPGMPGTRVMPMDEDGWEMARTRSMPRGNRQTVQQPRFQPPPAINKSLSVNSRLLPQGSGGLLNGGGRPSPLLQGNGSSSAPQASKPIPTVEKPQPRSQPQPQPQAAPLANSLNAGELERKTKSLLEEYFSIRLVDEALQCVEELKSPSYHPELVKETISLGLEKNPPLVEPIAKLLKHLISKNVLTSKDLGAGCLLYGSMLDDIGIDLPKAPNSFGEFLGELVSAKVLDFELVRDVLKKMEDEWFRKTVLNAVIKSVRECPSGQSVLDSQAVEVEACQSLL
# No constants are given. Whether binding was seen depends on the method and setting. In cells and extracts the contact can be indirect. These calls come from enrichment with a bait or labelling near it, and not all partners need be listed.
# Target: T1, eIFiso4E (Arabidopsis thaliana (endogenous in Col-0 plants)) (UniProt O04663)
# T1 sequence: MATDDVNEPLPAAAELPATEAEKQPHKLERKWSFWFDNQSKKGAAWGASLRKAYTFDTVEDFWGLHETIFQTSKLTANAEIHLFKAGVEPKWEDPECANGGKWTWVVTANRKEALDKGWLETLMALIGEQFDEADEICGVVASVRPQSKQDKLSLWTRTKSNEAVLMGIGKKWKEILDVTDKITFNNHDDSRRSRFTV
# Assay: affinity purification with mass spectrometry; gamma-aminophenyl-m7GTP (C10-spacer)-agarose beads incubated overnight at 4°C with whole-plant lysates (wild-type and eif4e1KO, mock or TuMV-inoculated, 21 dpi); binding buffer 100 mM HEPES pH 7.6, 5% glycerol, 50 mM KCl, 5 mM EDTA, 0.1% Triton X-100, 5 mM DTT; three washes; label-free nanoLC-MS/MS; blank agarose beads as negative control
row,binding,Substance
1,binds,eIFiso4G1 (from UniProt Q93ZT6 1-780)
2,binds,eIFiso4G2 (from UniProt O82233 1-747)
